Some of the results follow.
What was measured:
Test in all cases: log2 fold change, soluble protein after heating vs DMSO (PISA); higher = thermal stabilisation; K562 lysate, 10 uM; active = over 0.2 and 3.5 SD of the protein, either way, in both replicates (recomputed)
[1] = compound: CN1CC[C@H](c2c(O)cc(O)c3c(=O)cc(-c4ccccc4Cl)oc23)[C@H](O)C1 [alvocidib]
Summary of the method: (§1)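 Soluble protein was defined as the supernatant remaining after 21,000xg for 90 min, following pooling of heated aliquots and adjustment to 0.5% NP-40 at 4°C. Before that, crude K562 extract at 1 mg/mL protein in PBS pH 7.4 with 1 mM MgCl2 was treated with 10 μM compound for 30 min and heated for 3 min across 48°C-58°C. Quantification used TMTpro 16plex LC-MS/MS with channel sums equalised, and values are log-two fold changes in thermal stability relative to solvent controls from duplicates.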

Protein sequences, listed by entry. Tags and fused reporters are not part of them. Lines headed by an entry give the natural chain unless they say otherwise; changes in a name come on top.
UniProt Q9NX62: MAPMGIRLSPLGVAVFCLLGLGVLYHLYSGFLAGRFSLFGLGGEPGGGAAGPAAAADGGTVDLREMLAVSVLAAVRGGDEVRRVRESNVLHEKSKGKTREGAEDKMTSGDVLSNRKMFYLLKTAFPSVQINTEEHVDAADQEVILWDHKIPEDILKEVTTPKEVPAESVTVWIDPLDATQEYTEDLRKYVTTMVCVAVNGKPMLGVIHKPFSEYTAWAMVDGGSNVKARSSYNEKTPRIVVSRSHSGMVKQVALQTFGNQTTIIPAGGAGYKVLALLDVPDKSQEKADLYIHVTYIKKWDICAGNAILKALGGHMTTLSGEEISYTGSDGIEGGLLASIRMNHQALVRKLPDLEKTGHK
UniProt P13598: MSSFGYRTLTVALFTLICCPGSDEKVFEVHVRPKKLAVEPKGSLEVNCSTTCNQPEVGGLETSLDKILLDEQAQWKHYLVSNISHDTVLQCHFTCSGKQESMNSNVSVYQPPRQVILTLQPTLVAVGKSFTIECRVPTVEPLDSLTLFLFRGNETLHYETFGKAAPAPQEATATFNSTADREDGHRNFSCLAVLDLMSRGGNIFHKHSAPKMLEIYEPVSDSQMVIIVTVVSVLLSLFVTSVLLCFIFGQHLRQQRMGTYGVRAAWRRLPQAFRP
UniProt C9J406: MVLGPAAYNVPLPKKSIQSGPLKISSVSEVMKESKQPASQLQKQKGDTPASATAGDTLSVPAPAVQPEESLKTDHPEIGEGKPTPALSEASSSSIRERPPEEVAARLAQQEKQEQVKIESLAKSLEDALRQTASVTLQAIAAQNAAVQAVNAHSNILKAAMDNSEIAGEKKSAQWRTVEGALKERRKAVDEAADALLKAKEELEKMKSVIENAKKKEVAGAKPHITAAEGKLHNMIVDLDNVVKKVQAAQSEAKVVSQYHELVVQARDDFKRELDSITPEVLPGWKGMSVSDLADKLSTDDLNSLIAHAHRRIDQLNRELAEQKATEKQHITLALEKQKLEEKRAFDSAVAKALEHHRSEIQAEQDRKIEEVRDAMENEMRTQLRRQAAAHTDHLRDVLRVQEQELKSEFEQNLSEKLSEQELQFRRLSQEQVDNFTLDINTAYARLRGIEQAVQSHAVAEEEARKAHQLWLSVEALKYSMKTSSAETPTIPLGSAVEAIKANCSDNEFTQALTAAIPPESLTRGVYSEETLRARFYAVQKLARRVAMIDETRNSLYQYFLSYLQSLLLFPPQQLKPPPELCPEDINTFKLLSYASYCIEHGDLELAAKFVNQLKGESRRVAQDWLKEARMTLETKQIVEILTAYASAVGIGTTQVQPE
UniProt Q9Y547: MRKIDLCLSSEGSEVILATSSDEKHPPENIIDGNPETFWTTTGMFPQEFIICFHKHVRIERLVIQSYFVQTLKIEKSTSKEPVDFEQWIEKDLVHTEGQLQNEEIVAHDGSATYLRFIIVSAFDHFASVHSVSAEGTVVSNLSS
UniProt Q9NVR2, whole entry, looked up: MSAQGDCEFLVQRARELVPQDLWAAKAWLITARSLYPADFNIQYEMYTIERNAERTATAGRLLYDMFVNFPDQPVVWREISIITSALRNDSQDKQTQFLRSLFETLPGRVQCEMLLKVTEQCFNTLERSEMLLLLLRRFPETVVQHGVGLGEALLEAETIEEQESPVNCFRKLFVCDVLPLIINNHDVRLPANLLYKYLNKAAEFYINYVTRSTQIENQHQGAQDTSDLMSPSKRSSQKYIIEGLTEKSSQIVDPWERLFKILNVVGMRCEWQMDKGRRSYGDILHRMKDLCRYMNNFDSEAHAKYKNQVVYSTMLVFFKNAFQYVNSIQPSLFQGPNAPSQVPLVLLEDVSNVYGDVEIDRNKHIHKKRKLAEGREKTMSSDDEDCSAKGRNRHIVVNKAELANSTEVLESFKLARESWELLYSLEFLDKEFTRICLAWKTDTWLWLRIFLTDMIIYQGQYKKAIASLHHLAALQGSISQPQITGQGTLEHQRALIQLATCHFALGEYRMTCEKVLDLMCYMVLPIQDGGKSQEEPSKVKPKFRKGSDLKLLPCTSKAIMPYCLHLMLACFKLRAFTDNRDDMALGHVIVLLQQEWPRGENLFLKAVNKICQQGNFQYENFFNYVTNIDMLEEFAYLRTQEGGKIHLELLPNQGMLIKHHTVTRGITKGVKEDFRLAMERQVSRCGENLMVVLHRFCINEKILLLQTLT
UniProt Q13123, whole entry, looked up: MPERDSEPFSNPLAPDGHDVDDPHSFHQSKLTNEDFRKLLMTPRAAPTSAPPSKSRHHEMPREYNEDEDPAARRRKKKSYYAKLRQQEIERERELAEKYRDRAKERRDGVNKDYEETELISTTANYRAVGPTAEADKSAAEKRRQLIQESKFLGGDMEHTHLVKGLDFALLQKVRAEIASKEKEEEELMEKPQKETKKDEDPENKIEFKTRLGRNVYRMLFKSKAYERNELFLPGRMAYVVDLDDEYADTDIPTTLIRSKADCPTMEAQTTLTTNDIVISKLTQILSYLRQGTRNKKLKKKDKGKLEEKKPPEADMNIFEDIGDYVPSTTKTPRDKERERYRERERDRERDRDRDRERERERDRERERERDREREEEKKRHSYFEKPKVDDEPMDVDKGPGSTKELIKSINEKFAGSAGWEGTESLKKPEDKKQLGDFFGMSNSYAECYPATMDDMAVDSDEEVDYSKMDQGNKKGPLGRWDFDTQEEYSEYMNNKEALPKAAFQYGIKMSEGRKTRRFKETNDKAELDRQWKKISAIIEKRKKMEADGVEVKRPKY
UniProt O75054: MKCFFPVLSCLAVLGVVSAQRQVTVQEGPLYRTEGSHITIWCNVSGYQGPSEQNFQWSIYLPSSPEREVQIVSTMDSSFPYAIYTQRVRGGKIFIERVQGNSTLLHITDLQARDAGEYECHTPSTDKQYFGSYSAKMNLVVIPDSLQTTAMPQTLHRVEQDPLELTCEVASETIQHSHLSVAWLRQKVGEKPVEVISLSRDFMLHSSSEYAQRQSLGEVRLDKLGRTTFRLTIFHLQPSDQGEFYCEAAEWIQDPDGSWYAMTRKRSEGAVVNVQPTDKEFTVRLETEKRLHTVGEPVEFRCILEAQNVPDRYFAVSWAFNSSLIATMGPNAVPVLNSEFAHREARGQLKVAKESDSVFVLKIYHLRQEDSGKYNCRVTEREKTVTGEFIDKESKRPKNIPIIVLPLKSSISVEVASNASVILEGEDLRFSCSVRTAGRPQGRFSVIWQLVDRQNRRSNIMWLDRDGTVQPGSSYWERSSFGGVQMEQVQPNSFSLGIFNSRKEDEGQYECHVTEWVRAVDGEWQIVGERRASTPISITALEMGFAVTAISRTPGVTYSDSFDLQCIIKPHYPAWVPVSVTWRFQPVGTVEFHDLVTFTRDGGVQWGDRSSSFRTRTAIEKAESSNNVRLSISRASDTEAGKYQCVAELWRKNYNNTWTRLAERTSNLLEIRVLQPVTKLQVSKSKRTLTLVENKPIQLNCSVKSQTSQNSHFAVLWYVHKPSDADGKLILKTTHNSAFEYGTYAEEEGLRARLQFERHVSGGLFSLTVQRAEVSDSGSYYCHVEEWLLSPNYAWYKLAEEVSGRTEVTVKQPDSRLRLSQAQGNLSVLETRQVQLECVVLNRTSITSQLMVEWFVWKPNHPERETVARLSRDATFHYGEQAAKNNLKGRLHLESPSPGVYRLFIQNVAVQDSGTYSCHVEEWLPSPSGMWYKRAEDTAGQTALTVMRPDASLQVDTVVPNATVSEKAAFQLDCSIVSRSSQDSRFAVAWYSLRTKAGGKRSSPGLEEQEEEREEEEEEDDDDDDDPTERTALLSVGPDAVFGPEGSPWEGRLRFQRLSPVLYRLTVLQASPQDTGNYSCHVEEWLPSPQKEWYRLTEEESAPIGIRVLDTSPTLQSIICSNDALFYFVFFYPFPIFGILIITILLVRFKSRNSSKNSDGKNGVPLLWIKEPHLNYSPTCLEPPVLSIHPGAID
UniProt Q9BT40: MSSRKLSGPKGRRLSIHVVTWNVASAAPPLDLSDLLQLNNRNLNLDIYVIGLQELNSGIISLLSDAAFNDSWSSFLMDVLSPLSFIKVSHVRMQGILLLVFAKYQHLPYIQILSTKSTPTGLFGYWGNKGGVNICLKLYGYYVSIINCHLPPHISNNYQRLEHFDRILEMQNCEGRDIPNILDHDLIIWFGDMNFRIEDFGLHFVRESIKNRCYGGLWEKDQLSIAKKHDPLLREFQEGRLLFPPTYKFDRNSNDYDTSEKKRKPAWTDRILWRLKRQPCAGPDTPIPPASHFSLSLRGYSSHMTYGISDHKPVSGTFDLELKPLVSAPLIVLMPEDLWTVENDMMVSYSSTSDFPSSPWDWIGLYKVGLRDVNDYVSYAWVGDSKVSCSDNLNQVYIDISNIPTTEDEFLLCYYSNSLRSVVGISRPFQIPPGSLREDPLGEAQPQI
UniProt Q9P2D0: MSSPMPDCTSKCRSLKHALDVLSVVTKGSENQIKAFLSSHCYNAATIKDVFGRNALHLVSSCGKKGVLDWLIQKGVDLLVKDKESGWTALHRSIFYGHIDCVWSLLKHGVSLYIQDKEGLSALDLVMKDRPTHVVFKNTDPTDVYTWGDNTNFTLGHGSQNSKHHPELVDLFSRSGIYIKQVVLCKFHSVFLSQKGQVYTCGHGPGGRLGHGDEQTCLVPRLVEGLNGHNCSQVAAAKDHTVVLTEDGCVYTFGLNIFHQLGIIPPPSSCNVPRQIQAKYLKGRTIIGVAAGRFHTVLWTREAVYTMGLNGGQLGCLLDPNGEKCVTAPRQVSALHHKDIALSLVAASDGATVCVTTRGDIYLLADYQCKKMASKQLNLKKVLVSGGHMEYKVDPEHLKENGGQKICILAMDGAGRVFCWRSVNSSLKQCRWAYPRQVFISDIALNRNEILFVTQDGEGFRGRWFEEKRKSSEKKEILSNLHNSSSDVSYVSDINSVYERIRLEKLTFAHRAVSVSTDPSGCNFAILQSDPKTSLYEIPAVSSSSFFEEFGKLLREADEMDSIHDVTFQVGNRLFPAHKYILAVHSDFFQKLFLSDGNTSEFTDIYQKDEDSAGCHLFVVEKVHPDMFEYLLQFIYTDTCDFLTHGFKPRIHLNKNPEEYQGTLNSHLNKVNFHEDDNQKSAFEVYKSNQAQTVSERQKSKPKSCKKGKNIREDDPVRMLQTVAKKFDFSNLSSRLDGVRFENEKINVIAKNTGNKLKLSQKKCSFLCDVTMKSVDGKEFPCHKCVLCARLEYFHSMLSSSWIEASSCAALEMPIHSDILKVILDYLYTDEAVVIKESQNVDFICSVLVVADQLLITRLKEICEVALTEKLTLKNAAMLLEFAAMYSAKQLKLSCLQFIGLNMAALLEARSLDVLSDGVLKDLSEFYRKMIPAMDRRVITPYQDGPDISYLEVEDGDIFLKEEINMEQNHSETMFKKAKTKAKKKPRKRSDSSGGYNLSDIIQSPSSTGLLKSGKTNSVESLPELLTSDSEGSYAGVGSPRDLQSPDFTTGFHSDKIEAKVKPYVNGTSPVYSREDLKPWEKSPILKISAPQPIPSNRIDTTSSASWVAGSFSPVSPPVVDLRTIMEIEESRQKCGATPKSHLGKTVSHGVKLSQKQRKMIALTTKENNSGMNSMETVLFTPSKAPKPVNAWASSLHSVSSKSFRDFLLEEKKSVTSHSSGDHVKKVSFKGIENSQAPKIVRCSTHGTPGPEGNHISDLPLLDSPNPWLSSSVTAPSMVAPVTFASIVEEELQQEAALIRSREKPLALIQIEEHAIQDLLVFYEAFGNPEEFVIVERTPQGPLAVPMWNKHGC
UniProt Q9H0C8: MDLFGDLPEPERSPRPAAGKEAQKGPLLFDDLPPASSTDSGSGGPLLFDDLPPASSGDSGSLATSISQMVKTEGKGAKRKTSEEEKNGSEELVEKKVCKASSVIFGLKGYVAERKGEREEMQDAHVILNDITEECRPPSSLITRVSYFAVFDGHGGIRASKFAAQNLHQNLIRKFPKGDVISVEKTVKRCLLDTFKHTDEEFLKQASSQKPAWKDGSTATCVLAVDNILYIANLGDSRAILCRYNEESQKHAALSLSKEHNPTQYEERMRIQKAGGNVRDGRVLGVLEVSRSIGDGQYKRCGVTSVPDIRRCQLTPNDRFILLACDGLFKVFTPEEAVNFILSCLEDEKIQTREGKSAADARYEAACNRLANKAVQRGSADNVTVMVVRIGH
UniProt O75874, whole entry, looked up: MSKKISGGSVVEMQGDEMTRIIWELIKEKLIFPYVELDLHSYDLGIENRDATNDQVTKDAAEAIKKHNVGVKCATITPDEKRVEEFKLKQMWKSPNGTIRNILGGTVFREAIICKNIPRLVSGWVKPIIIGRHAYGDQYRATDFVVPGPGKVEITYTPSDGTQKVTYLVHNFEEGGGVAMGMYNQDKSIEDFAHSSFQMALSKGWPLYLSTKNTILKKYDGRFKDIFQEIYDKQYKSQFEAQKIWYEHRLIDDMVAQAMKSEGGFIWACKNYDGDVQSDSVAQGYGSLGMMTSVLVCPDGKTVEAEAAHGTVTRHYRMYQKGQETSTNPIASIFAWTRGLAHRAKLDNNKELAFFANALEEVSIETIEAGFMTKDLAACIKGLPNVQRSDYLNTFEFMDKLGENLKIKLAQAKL

[2] = compound: CN1CCc2c(c3ccccc3n2Cc2ccc(C(=O)NO)cc2)C1 [Tubastatin A]
Summary of the method: as §1

[3] = compound: CNC(=O)C1=CC=CC=C1NC2=NC(=NC=C2Cl)NC3=C(C=C(C=C3)N4CCOCC4)OC
Summary of the method: as §1

[4] = compound: CNC(=O)c1ccc(Nc2ncc(C(F)(F)F)c(NCc3nccnc3N(C)S(C)(=O)=O)n2)cc1 [defactinib]
Summary of the method: as §1

[5] = compound: CNc1nc(-c2ccc3c(N)n[nH]c3c2)cc(N2C[C@@H](C(=O)NC3CCCCC3)CC[C@H]2C)n1
Summary of the method: as §1

[6] = compound: COC(=O)N[C@@H](C)CNc1nccc(-c2cn(C(C)C)nc2-c2cc(Cl)cc(NS(C)(=O)=O)c2F)n1 [encorafenib]
Summary of the method: as §1

[7] = compound: COC(=O)[C@H](CCSC)NC(=O)C1=C(C=C(C=C1)NC[C@H](CS)N)C2=CC=CC=C2
Summary of the method: as §1

[8] = compound: COc1cc(Nc2ncc3c(n2)-c2ccc(Cl)cc2C(c2c(F)cccc2OC)=NC3)ccc1C(=O)O [alisertib]
Summary of the method: as §1

[9] = compound: COc1cc2nc(-c3cc(F)ccc3O)nc(N[C@@H]3CNC[C@H]3C(C)(C)O)c2cc1OC
Summary of the method: as §1

[10] = compound: COc1cc2ncnc(Nc3ccc(F)c(Cl)c3)c2cc1OCCCN1CCOCC1 [gefitinib]
Summary of the method: as §1

[11] = compound: CS(=O)(=O)CCNCc1ccc(-c2ccc3ncnc(Nc4ccc(OCc5cccc(F)c5)c(Cl)c4)c3c2)o1 [lapatinib]
Summary of the method: as §1

[12] = compound: CS(=O)(=O)N1CCN(Cc2cc3nc(-c4cccc5[nH]ncc45)nc(N4CCOCC4)c3s2)CC1 [pictilisib]
Summary of the method: as §1

[13] = compound: C[C@@H](Oc1cc(-c2cnn(C3CCNCC3)c2)cnc1N)c1c(Cl)ccc(F)c1Cl [crizotinib]
Summary of the method: as §1

[14] = compound: C[C@H](C1=CC=C(C=C1)C(=O)NC2=C3C=CNC3=NC=C2)N
Summary of the method: as §1

[15] = compound: C[C@H](Nc1ncnc2nc[nH]c12)c1cc2cccc(Cl)c2c(=O)n1-c1ccccc1 [duvelisib]
Summary of the method: as §1

[16] = compound: Cc1cc(Nc2cc(CN3CCOCC3)c3nc(C)c(Cc4ccc(Cl)cc4F)n3n2)n[nH]1 [gandotinib]
Summary of the method: as §1

[17] = compound: Cc1cc(Nc2cc(N3CCN(C)CC3)nc(Sc3ccc(NC(=O)C4CC4)cc3)n2)n[nH]1 [tozasertib]
Summary of the method: as §1

[18] = compound: Cc1ccc(-n2nc(C(C)(C)C)cc2NC(=O)Nc2ccc(OCCN3CCOCC3)c3ccccc23)cc1 [doramapimod]
Summary of the method: as §1

[19] = compound: Cc1ccc(NC(=O)c2ccc(CN3CC[C@H](N(C)C)C3)c(C(F)(F)F)c2)cc1Nc1nccc(-c2cncnc2)n1 [bafetinib]
Summary of the method: as §1

[20] = compound: Cc1cccc(CC(=O)N2CCc3c2ccc(-c2cn(C)c4ncnc(N)c24)c3F)n1
Summary of the method: as §1

Target	log2 fold change [1]	log2 fold change [2]	log2 fold change [3]	log2 fold change [4]	log2 fold change [5]	log2 fold change [6]	log2 fold change [7]	log2 fold change [8]	log2 fold change [9]	log2 fold change [10]	log2 fold change [11]	log2 fold change [12]	log2 fold change [13]	log2 fold change [14]	log2 fold change [15]	log2 fold change [16]	log2 fold change [17]	log2 fold change [18]	log2 fold change [19]	log2 fold change [20]
INTS1 (UniProt Q8N201)	inactive: 0.009	inactive: -0.028	inactive: 0.013	inactive: 0.019	inactive: 0.004	inactive: 0.028	inactive: -0.018	inactive: 0.021	inactive: 0.007	inactive: -0.04	inactive: -0.051	inactive: -0.011	inactive: -0.067	inactive: 0.05	inactive: -0.04	inactive: -0.136	inactive: 0.007	inactive: -0.001	inactive: -0.164	inactive: 0.031
IMPAD1 (UniProt Q9NX62)	inactive: 0.013	inactive: 0.022	inactive: 0.043	inactive: -0.016	inactive: -0.006	inactive: 0.005	inactive: -0.023	inactive: 0.009	inactive: -0.001	inactive: 0.085	inactive: -0.036	inactive: 0.02	inactive: -0.005	inactive: -0.023	inactive: 0	inactive: 0.027	inactive: -0.007	inactive: -0.003	inactive: -0.02	inactive: -0.026
ICAM2 (UniProt P13598)	inactive: 0.078	inactive: 0.017	inactive: 0.032	inactive: 0.039	inactive: -0.019	inactive: -0.026	inactive: -0.065	inactive: -0.016	inactive: 0.009	inactive: -0.02	inactive: -0.008	inactive: -0.08	inactive: -0.002	active: 0.293	inactive: -0.035	inactive: -0.04	inactive: -0.01	inactive: -0.014	inactive: 0.013	inactive: -0.075
INF2 (UniProt Q27J81)	inactive: -0.027	inactive: -0.062	inactive: 0.022	inactive: 0.117	inactive: -0.104	inactive: -0.068	inactive: 0.083	inactive: -0.008	inactive: -0.01	inactive: -0.009	inactive: 0.024	inactive: -0.019	inactive: -0.043	inactive: 0.002	inactive: -0.051	inactive: -0.001	inactive: 0.04	inactive: 0.049	inactive: -0.068	inactive: 0.128
IMMT (UniProt C9J406)	inactive: -0.027	inactive: -0.076	inactive: -0.162	inactive: 0.075	inactive: 0.008	inactive: -0.085	inactive: -0.166	inactive: -0.031	inactive: -0.073	inactive: -0.052	inactive: 0.017	inactive: 0.082	inactive: -0.116	active: -0.461	inactive: 0.003	inactive: 0.048	inactive: 0.015	inactive: -0.034	inactive: 0.03	inactive: 0.168
HSPB11 (UniProt Q9Y547)	inactive: 0	inactive: 0.052	inactive: -0.024	inactive: 0.002	inactive: 0.068	inactive: -0.009	inactive: -0.044	inactive: -0.001	inactive: 0.004	inactive: 0.015	inactive: -0.021	inactive: 0.014	inactive: -0.036	inactive: -0.064	inactive: -0.025	inactive: 0.167	inactive: -0.035	inactive: -0.041	inactive: -0.058	inactive: 0.025
INTS10 (UniProt Q9NVR2)	inactive: -0.009	inactive: -0.143	inactive: -0.033	inactive: 0.016	inactive: -0.045	inactive: -0.017	inactive: 0.043	inactive: -0.093	inactive: -0.097	inactive: 0.049	inactive: 0.097	inactive: -0.093	inactive: -0.04	inactive: 0.027	inactive: -0.09	inactive: -0.168	inactive: 0.011	inactive: 0.026	inactive: -0.052	inactive: 0
IK (UniProt Q13123)	inactive: -0.016	inactive: -0.108	inactive: 0.017	inactive: 0.017	inactive: 0.02	inactive: 0.04	inactive: -0.047	inactive: 0.013	inactive: 0.015	inactive: 0.007	inactive: -0.038	inactive: 0.008	inactive: -0.005	inactive: -0.03	inactive: -0.05	inactive: 0.016	inactive: 0.041	inactive: -0.006	inactive: -0.026	inactive: 0.011
IGSF3 (UniProt O75054)	inactive: -0.024	inactive: -0.013	inactive: 0.02	inactive: 0.045	inactive: 0.039	inactive: 0.005	inactive: -0.061	inactive: -0.024	inactive: 0.007	inactive: 0.065	inactive: 0.017	inactive: -0.027	inactive: 0.02	inactive: -0.031	inactive: 0.001	inactive: 0.049	inactive: -0.039	inactive: -0.018	inactive: 0.114	inactive: 0.041
INPP5K (UniProt Q9BT40)	inactive: -0.018	inactive: -0.071	inactive: 0.044	inactive: -0.217	inactive: -0.074	inactive: -0.049	inactive: -0.088	inactive: 0.175	inactive: 0.009	inactive: 0.017	inactive: 0.027	inactive: 0.004	inactive: -0.04	inactive: -0.082	inactive: 0.032	inactive: 0.033	inactive: 0	inactive: 0.076	inactive: -0.108	inactive: 0.149
IBTK (UniProt Q9P2D0)	inactive: 0.083	inactive: -0.064	inactive: 0.023	inactive: -0.016	inactive: 0.046	inactive: 0.015	inactive: -0.167	inactive: -0.031	inactive: -0.027	inactive: 0.074	inactive: -0.029	inactive: 0.022	inactive: 0.013	inactive: 0.09	inactive: -0.011	inactive: -0.089	inactive: 0.013	inactive: 0.052	inactive: 0.015	inactive: -0.123
INPP1 (UniProt P49441)	inactive: -0.004	inactive: -0.031	inactive: -0.003	inactive: 0.021	inactive: -0.068	inactive: -0.014	inactive: -0.022	inactive: 0.035	inactive: -0.018	inactive: 0.105	inactive: -0.01	inactive: -0.044	inactive: -0.012	inactive: -0.013	inactive: 0.009	inactive: -0.123	inactive: 0.054	inactive: -0.011	inactive: -0.011	inactive: -0.025
IDH3A (UniProt P50213)	inactive: 0.014	inactive: -0.008	inactive: -0.012	inactive: 0.01	inactive: -0.022	inactive: -0.028	inactive: 0.017	inactive: -0.005	inactive: -0.018	inactive: -0.035	inactive: -0.012	inactive: -0.025	inactive: -0.018	inactive: 0.034	inactive: 0.017	inactive: -0.041	inactive: -0.003	inactive: 0.007	inactive: -0.007	inactive: -0.026
ILKAP (UniProt Q9H0C8)	inactive: 0.056	inactive: -0.067	inactive: 0	inactive: 0.03	inactive: -0.028	inactive: -0.002	inactive: 0.017	inactive: 0.067	inactive: -0.006	inactive: 0.005	inactive: 0.04	inactive: 0.049	inactive: 0.026	inactive: 0.022	inactive: 0.007	inactive: -0.052	inactive: 0.031	inactive: 0.029	inactive: 0.001	inactive: -0.021
HSPG2 (UniProt P98160)	inactive: -0.037	inactive: -0.002	inactive: 0.001	inactive: 0.001	inactive: 0.029	inactive: 0.021	inactive: 0.043	inactive: -0.109	inactive: 0.011	inactive: 0.05	inactive: -0.003	inactive: -0.031	inactive: 0.011	inactive: -0.189	inactive: 0.01	inactive: 0.122	inactive: -0.024	inactive: 0.006	inactive: 0.045	inactive: 0.062
IDH1 (UniProt O75874)	inactive: 0.013	inactive: -0.005	inactive: -0.015	inactive: 0.038	inactive: -0.023	inactive: -0.018	inactive: 0.081	inactive: 0.006	inactive: 0.017	inactive: -0.025	inactive: -0.018	inactive: -0.004	inactive: -0.044	inactive: -0.021	inactive: -0.004	inactive: -0.042	inactive: 0.015	inactive: -0.002	inactive: -0.04	inactive: 0.029

Fetched one by one from the entries so far:
Target	log2 fold change [1]	log2 fold change [2]	log2 fold change [3]	log2 fold change [4]	log2 fold change [5]	log2 fold change [6]	log2 fold change [7]	log2 fold change [8]	log2 fold change [9]	log2 fold change [10]	log2 fold change [11]	log2 fold change [12]	log2 fold change [13]	log2 fold change [14]	log2 fold change [15]	log2 fold change [16]	log2 fold change [17]	log2 fold change [18]	log2 fold change [19]	log2 fold change [20]
INTS10 (UniProt Q9NVR2)	inactive: -0.009	inactive: -0.143	inactive: -0.033	inactive: 0.016	inactive: -0.045	inactive: -0.017	inactive: 0.043	inactive: -0.093	inactive: -0.097	inactive: 0.049	inactive: 0.097	inactive: -0.093	inactive: -0.04	inactive: 0.027	inactive: -0.09	inactive: -0.168	inactive: 0.011	inactive: 0.026	inactive: -0.052	inactive: 0
IGSF3 (UniProt O75054)	inactive: -0.024	inactive: -0.013	inactive: 0.02	inactive: 0.045	inactive: 0.039	inactive: 0.005	inactive: -0.061	inactive: -0.024	inactive: 0.007	inactive: 0.065	inactive: 0.017	inactive: -0.027	inactive: 0.02	inactive: -0.031	inactive: 0.001	inactive: 0.049	inactive: -0.039	inactive: -0.018	inactive: 0.114	inactive: 0.041
